This passage reports cell number change and AC50 results from PubChem BioAssay AID2685 (National Center for Advancing Translational Sciences (NCATS), 2010).

This assay can be described thus: qHTS Assay for Lipid Storage Modulators in Drosophila S3 Cells.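 On cell number change: cells counted by Cell Tracker Red CMTPX staining in the red channel.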 The following applies: BODIPY lipid droplet fluorescence, 18-24 h; for cell number change: measured here: cell count max response, cells fed with added oleic acid. Summed up:
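Drosophila S3 cells got compounds at several concentrations plus oleic acid (400 uM solution). Laser-scanning cytometry with 488 nm excitation read lipid droplets at 500-530 nm and cells at 575-640 nm. Percent activity was relative to 20 uM Triacsin C.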
Background: qHTS replaces the single test concentration by a dilution series.

The mark [1] stands for this setting: measured here: lipid fluorescence (Fed channel) AC50, cells fed with added oleic acid.
The mark [2] stands for this setting: measured here: cell number channel AC50, cells fed with added oleic acid.

The other results are listed elsewhere or left out. The main result of the screen is listed elsewhere. These columns were measured beside it and carry no call. Most of these compounds were active or inconclusive in the main read-out, so they are no random draw. The note in brackets gives the kind of curve behind each potency; many fits are weak.

On to `O=C(CCc1ccccc1)N1CCN(c2ccc(Cl)cc2)CC1`, for which the cell number change was -2.42%. The AC50 (commonly the concentration giving half of the maximal activity seen) under setting [1] is 6.51 µM [falling, single point].

As for `O=C1CCN(S(=O)(=O)c2ccccc2)CCN1CCOCc1ccc(C(F)(F)F)cc1`, the cell number change amounted to 9.84%. Moreover, the AC50 under setting [1] is 4.61 µM [falling, single point].

For the compound `Cc1ccc(C(=O)Nc2cccc(C(F)(F)F)c2)cc1Nc1cnccn1`, the cell number change was -18.9%.

`CC(c1nnc(Sc2nnnn2-c2ccccc2)n1-c1ccc(F)cc1)N(C)C` (stereo not given): the cell number change was -25.6%. For the same compound, the concentration at half-maximal activity (AC50) under setting [2] was 0.651 µM [falling, full curve]. The half-maximal activity concentration (AC50) under setting [1] is 0.651 µM [falling, full curve].

`Cc1cc(C)c(S(=O)(=O)N(C)CC(=O)NCc2cccnc2)c(C)c1`: the cell number change is 40.8%.

For `O=C(/C=C/Nc1ccccc1Oc1ccccc1)c1ccco1`, the cell number change is -60.4%. For the same compound, the AC50 under setting [1] is 12.6 µM [falling, partial curve, poor fit].

For `Cc1ccccc1-n1c(C)cc(/C=N/NC(=O)c2ccncc2)c1C`, the cell number change is 13%. Also, the AC50 under setting [1] was 0.00517 µM [rising, full curve, poor fit].

Turning to `CCOc1ccc(C(=O)NC(C)(C)CC)cc1`, the cell number change was found to be 0.637%. The AC50 under setting [2] was 6.51 µM [rising, single point].

Consider `CCN(CCC(=O)O)c1ccccc1`, for which the cell number change is 10.4%. In addition, under setting [1], the half-maximal activity concentration (AC50) is 29.1 µM [falling, single point].

On to `O=C(N/N=C/c1ccccc1OC(F)F)c1cc(-c2ccncc2)nc2ccccc12`, for which the cell number change amounted to 30.9%. Besides, the half-maximal activity concentration (AC50) under setting [2] is 2.31 µM [rising, single point]. The concentration at half-maximal activity (AC50) under setting [1] was 6.51 µM [rising, single point].

Consider `NCCCCc1ccc2ccc3cccc4ccc1c2c34`, for which the cell number change was -35%. Moreover, under setting [2], the AC50 was 18.4 µM [falling, single point]. The AC50 under setting [1] is 0.164 µM [rising, full curve, poor fit].

Regarding `O=C(CCN1C(=O)/C(=C/c2ccc(F)cc2)SC1=S)Nc1cccnc1`, the cell number change is 8.7%. Moreover, the half-maximal activity concentration (AC50) under setting [1] was 6.51 µM [rising, single point].

For the compound `Cc1cc(C(=O)CSc2ccc(Cl)cc2)cc(C)c1OC(=S)N(C)C`, the cell number change was -17%. The AC50 under setting [1] is 0.00517 µM [falling, full curve, poor fit].

Consider `COc1ccc(CNC(=O)CC23CC4CC(CC(C4)C2)C3)cc1`, for which the cell number change amounted to 7.14%. For the same compound, the AC50 under setting [1] is 6.51 µM [rising, single point].

In the case of `CCCC(=O)N1CCN(c2ccc(NC(=O)c3sc4ccccc4c3Cl)cc2)CC1`, the cell number change is -23.6%. Moreover, the AC50 under setting [1] is 6.51 µM [rising, single point].

Turning to `Cc1cc(-c2ccccc2)[nH]c(=O)c1S(=O)(=O)c1ccccc1`, the cell number change is 14.1%. Under setting [1], the AC50 was 29.1 µM [rising, single point].

Take `CCc1nc(SCc2nc3ccccc3[nH]2)c2oc3ccccc3c2n1`: the cell number change was -3.06%. Besides, under setting [2], the concentration at half-maximal activity (AC50) is 0.326 µM [rising, full curve]. Further, under setting [1], the AC50 is 0.326 µM [rising, full curve].

With `Cc1c(Br)c([N+](=O)[O-])nn1CC(=O)N1CCc2ccccc2C1`, the cell number change was determined as 14.8%. The half-maximal activity concentration (AC50) under setting [1] was 29.1 µM [rising, single point].

On to `COc1ccc(CN2CCNC(=O)C2CC(=O)NC2CCCC2)c(OC)c1` (stereo not given), for which the AC50 under setting [1] is 9.2 µM [rising, partial curve].

Turning to `COc1ccc(C2C(C#N)=C(N)N(N(C)C)C3=C2C(=O)CCC3)cc1` (stereo not given), the cell number change is -5.56%. Also, the AC50 under setting [1] is 1.46 µM [falling, full curve].

With `COc1ccc(C)cc1NC(=O)c1sc2ncnc(N3CCN(c4ccccn4)CC3)c2c1C`, the cell number change was -5.56%. Moreover, under setting [1], the AC50 was 6.51 µM [falling, single point].

Consider `COc1ccc2[nH]c(N=Nc3ccccc3C)c(O)c2c1`, for which the cell number change was determined as 17.2%. Besides, the concentration at half-maximal activity (AC50) under setting [1] was 8.2 µM [rising, partial curve].

Consider `Cc1cc(C)c(S(=O)(=O)N2CCC(C(N)=O)CC2)cc1C`, for which the cell number change was -4.95%. Further, the AC50 under setting [2] was 0.0517 µM [falling, full curve, poor fit].

Consider `CC(=O)Nc1ccc(C2=CC(=O)CC(C)(C)C2)cc1`, for which the cell number change was -9.27%. Further, under setting [2], the AC50 is 0.651 µM [rising, single point].

As to `Cc1cccc(/C=N/NC(=O)c2ccc(NC(=O)c3cccc(Cl)c3)cc2)n1`, the cell number change is 149%. Moreover, the AC50 under setting [2] was 16.4 µM [rising, partial curve]. Further, under setting [1], the concentration at half-maximal activity (AC50) was 11.6 µM [falling, single point].

Regarding `O=C(CCNS(=O)(=O)c1ccccc1C(F)(F)F)NCCCSc1ccccc1`, the cell number change came out at 39.2%. The AC50 under setting [2] was 35.5 µM [rising, single point].

With `COc1ccccc1Nc1ncccc1[N+](=O)[O-]`, the cell number change was -38.8%. Besides, under setting [2], the concentration at half-maximal activity (AC50) is 14.6 µM [falling, partial curve]. The AC50 under setting [1] was 7.31 µM [falling, partial curve].

On to `CC1(C)O[C@@H]2[C@H](O1)[C@@H](COS(=O)(=O)O)O[C@H]2n1ccc(=O)[nH]c1=O`, for which the cell number change is -42.6%. Under setting [2], the concentration at half-maximal activity (AC50) is 32.6 µM [falling, single point]. The AC50 under setting [1] was 10.3 µM [falling, single point].

Regarding `COc1ccc(CNC(=O)c2ccc3c(c2)N(C)CCS3)cc1`, the cell number change amounted to 4.61%. Moreover, under setting [1], the concentration at half-maximal activity (AC50) is 29.1 µM [rising, single point].

`O=C(Nc1ccc2nc3n(c(=O)c2c1)CCCCC3)c1ccccc1Cl`: the cell number change was -34.9%. Under setting [2], the concentration at half-maximal activity (AC50) is 29.1 µM [falling, single point]. In addition, the concentration at half-maximal activity (AC50) under setting [1] was 29.1 µM [falling, single point].

For the compound `CCOC(=O)c1sc(=NC(=O)c2ccc(C)cc2)n(C)c1C`, the cell number change was -4.78%. Besides, under setting [1], the concentration at half-maximal activity (AC50) is 0.461 µM [falling, single point].

Regarding `Cc1ccc(NC(=S)N2CCC(NC(=O)c3cccc(F)c3)CC2)cc1`, the cell number change is -10.7%. Further, the AC50 under setting [1] was 32.6 µM [falling, single point].

In the case of `CCCCCOc1ccc(C2C(C(C)=O)=C(C)Nc3ncnn32)cc1OC` (stereo not given), the cell number change was -23.3%. Further, under setting [1], the AC50 was 0.116 µM [falling, full curve, poor fit].

Turning to `Cc1nn(-c2cc(N3CCOCC3)ccc2[N+](=O)[O-])c(=O)c2ccccc12`, the cell number change was 14.8%. Also, the concentration at half-maximal activity (AC50) under setting [1] is 1.03 µM [falling, full curve, poor fit].

On to `CN1CCN(C(=S)Nc2ccccc2Cl)CC1`, for which the cell number change was -33.8%. Besides, the half-maximal activity concentration (AC50) under setting [2] was 0.731 µM [falling, full curve]. The AC50 under setting [1] was 0.651 µM [falling, single point].

For `COc1ccc(CNS(=O)(=O)c2ccc(S(=O)(=O)NC3CC3)cc2)cc1`, the cell number change is -4.2%.

Regarding `O=C(NCCNc1ccc2ccccc2c1)c1cccn2c(=O)c3sccc3nc12`, the cell number change was -17.5%.

`Cc1nn(-c2ccccc2)c2nc(-c3ccccc3)cc(C(=O)N3CCOCC3)c12`: the cell number change is 7.04%.

As to `CCOc1ccc(C(=O)OC2CCCN(C)C2)cc1` (stereo not given), the cell number change is 3.67%.

Regarding `CC(=O)N(C)c1ccc(NC(=O)Cc2cccs2)cc1`, the cell number change amounted to 3.52%. Further, the AC50 under setting [1] is 0.291 µM [rising, full curve, poor fit].

With `Cc1ccc(NC(=O)c2sc(Cl)nc2-c2ccccc2)cc1C`, the cell number change was 40%. Moreover, under setting [2], the AC50 is 2.31 µM [rising, full curve]. Further, the concentration at half-maximal activity (AC50) under setting [1] was 4.61 µM [rising, partial curve].

As for `CCOC(=O)N1CCN(Cc2cc(=O)oc3ccc4ccccc4c23)CC1`, the cell number change was -28%.

For `C=CCN(c1ccccc1)S(=O)(=O)c1cccc(C(=O)O)c1`, the cell number change was -58.1%. Besides, under setting [2], the AC50 was 10.3 µM [falling, partial curve]. Moreover, the concentration at half-maximal activity (AC50) under setting [1] is 6.51 µM [falling, single point].

Regarding `O=C(Nc1nnc(/C=C/c2ccccc2)s1)c1ccco1`, the cell number change amounted to 3.27%. Besides, under setting [2], the half-maximal activity concentration (AC50) was 1.84 µM [rising, single point].

`CCn1c(=O)cc(OCC(=O)N(C)c2ccccc2F)c2ccccc21`: the cell number change was -61.3%. Further, the AC50 under setting [2] is 29.1 µM [falling, single point].

As for `Cc1ccc(-c2cnc(SCC(=O)N3CCCc4ccccc43)n2C)cc1`, the cell number change is -6.25%. The AC50 under setting [2] is 0.92 µM [falling, full curve].

For `O=C(NC(C(=O)NCCN1CCOCC1)C12CC3CC(CC(C3)C1)C2)C1CCCCC1` (stereo not given), the cell number change was 4.99%.

`COc1ccc(NC(=S)NCCSc2ccc(Cl)cc2)c(OC)c1`: under setting [2], the AC50 was 0.58 µM [rising, single point].

As for `Cc1ccc[n+](CC(=O)c2ccc(NC(=O)c3ccccc3)cc2)c1`, the cell number change is -2.46%. Moreover, the half-maximal activity concentration (AC50) under setting [2] is 2.91 µM [rising, single point]. In addition, the AC50 under setting [1] was 4.61 µM [rising, single point].

In the case of `COc1ccc(C2/C(=C(/O)c3ccccc3)C(=O)C(=O)N2CO)cc1` (stereo not given), the cell number change was -17.6%.

`CC(=O)Nc1ccc(S(=O)(=O)N2CCN(c3ccc([N+](=O)[O-])cc3)CC2)cc1`: the cell number change is -15.4%.

Take `Cc1ccc2c(COC(=O)c3ccccc3Cl)cc(=O)oc2c1`: the AC50 under setting [1] was 0.00461 µM [falling, full curve, poor fit].

As to `COc1ccc(CNC(=O)CSc2nnc(C)n2-c2ccc(F)cc2)cc1`, the cell number change came out at 14.2%. Also, under setting [1], the AC50 was 6.51 µM [rising, single point].

As to `CC(C)CCNC(=O)c1ccc(Cl)c(N)c1`, the cell number change is -2.87%. In addition, the concentration at half-maximal activity (AC50) under setting [2] is 1.46 µM [falling, partial curve]. In addition, the AC50 under setting [1] was 1.16 µM [falling, full curve].

As for `CCOCCCNC(=O)c1cn(C)c2ccc(S(=O)(=O)N3CCCC3)cc2c1=O`, the cell number change was -13%.

Turning to `COc1ccc(C)cc1N(CC(=O)NC1CCCC1)C(=O)Cn1nnc(-c2ccc(C)o2)n1`, the cell number change was found to be 10.5%. The AC50 under setting [1] is 6.51 µM [falling, full curve, poor fit].

For the compound `O=C(O)c1ccc(Oc2ccc(C(F)(F)F)cn2)cc1`, the cell number change came to 8.06%. Moreover, the concentration at half-maximal activity (AC50) under setting [2] is 0.651 µM [falling, full curve]. For the same compound, the concentration at half-maximal activity (AC50) under setting [1] is 5.17 µM [falling, single point].

On to `O=C(Cn1nc([N+](=O)[O-])nc1Br)NC(c1ccccc1)c1ccccc1`, for which the cell number change was -46%. Besides, under setting [2], the AC50 is 20.6 µM [falling, partial curve]. In addition, the AC50 under setting [1] was 29.1 µM [falling, single point].

As to `CC(NC(=O)c1ccco1)C(=O)N1CCN(C(c2ccccc2)c2ccccc2)CC1` (stereo not given), the concentration at half-maximal activity (AC50) under setting [2] is 2.31 µM [rising, partial curve].

For the compound `CC(C)C(NC(=O)c1ccc([N+](=O)[O-])cc1Cl)C(=O)N1CCCC1` (stereo not given), the cell number change is 7.62%. Also, the half-maximal activity concentration (AC50) under setting [1] was 0.206 µM [falling, single point].
